Assays:
fish sperm DNA (FSDNA) = experiment: UV-visible titrations with fish sperm DNA, multiple independent binding sites (MIS) model; settings: change in molar absorption on DNA binding; 25 mM MOPS, 50 mM NaCl, pH 7.0, 25 °C
Procedure: We then studied the interactions of the complexes with double‐stranded DNA using UV‐visible titrations. Briefly, solutions of 44.14, 31.52, 35.17, 37.55, and 29.62 µM for the five complexes [Ir(L1‐5)2(en)]Cl, respectively, were titrated (in duplicate) with fish sperm DNA (FSDNA) at 25 °C (Figure 7 and Figures S19–22). The interactions between these complexes and DNA turned out not to involve a single type of binding site (vide infra). Nevertheless, the data from the UV‐visible titrations were provisionally analyzed globally using the multiple independent binding sites (MIS) model to determine apparent binding affinities and apparent binding site sizes (Table 4).
All solutions were prepared by dissolving solids in a buffer with stirring, then filtration through a 0.22 µm PES filter to remove solid particles and ensure uniform, saturated solutions before titration. Concentrations were determined using extinction coefficients. MOPS buffer was prepared by dissolving MOPS (3‐(N‐morpholino)propanesulfonic acid, NaCl (all obtained from Fisher and used as supplied) in deionized water (Elga Purelab Flex), adjusting the pH to 7.0 using a NaOH solution (pH of the buffer was determined using a Hanna Instruments pH211 microprocessor pH meter with a Bioblock Scientific pH probe) and making up the solution to 0.5 liter. A stock solution of fish sperm DNA was prepared by dissolving approximately 0.1 g of fish sperm DNA in 10 mL of the buffer. The resulting solution was dialyzed (3.5 kDa MWCO, Visking, Medicell International Ltd) against 0.5 liters of buffer. Following dialysis, the DNA concentration was determined using UV‐visible spectroscopy using a molar absorption coefficient ε260 nm = 12 800 M^−1 cm^−1.^[ [37] ^] Spectra and titrations were plotted in OriginLab Origin 2019b. The titration data were analyzed globally for each complex using an in‐house written version of the multiple independent binding sites model which also explicitly takes changing ligand concentrations into account.^[ [49] ^]

FSDNA = experiment: Isothermal titration calorimetry of DNA binding, two types of independent binding sites; set-up: species or system fish; settings: 25 mM MOPS, 5 mM NaCl, pH 7.0, 25 °C; for ΔH A1 / ‐TΔS A1: high-affinity site; for ΔH B1 / ‐TΔS B1: low-affinity site
Procedure: Cooperative self‐aggregation of DNA binders in combination with DNA binding makes data analysis complex because of the presence of coupled equilibria.^[ [46] ^] In the case of aggregation of charged species, the aggregation process tends to be very sensitive to salt concentration. We therefore studied self‐aggregation in buffer at a lower salt concentration (25 mM MOPS, pH 7.0, 5 mM NaCl) and found no indications of self‐aggregation. We therefore opted to carry out the ITC experiments in a buffer with a reduced salt concentration of 5 mM. Titrations were carried out in two parts, viz. a first titration focussing on the first binding event followed by a second titration focussing on the second binding event (Figures S23–25 with complex and DNA concentrations for each individual titration in Table S5). Figures S23 and S25 clearly show two binding events, as anticipated from UV‐visible titrations.
We analyzed the data using a model involving two types of independent binding sites, correcting for dilution heat effects in our custom data analysis software I2CITC^[ [45], [47] ^] […] The complexes also bind to a second lower affinity type of binding site with a size of approximately 2–3 basepairs with an affinity K B1 of the order of 10^5 M^−1 in an exothermic process. Based on the combination of binding site size and the exothermic interaction, we attribute the low‐affinity binding event to non‐specific binding of the cationic complexes to negatively charged DNA, supported by hydrophobic interactions between complexes. The binding site size of the higher affinity binding site exceeds the dimensions of the complexes of around five base pairs, as estimated from the docking studies (vide supra). […] Intriguingly, the relatively low ΔH A1 is in line with groove binding.^[ [48] ^]
Buffers employed in the experiments were 50 mM NaCl and 25 mM MOPS (adjusted to pH 7 with NaOH) and 5 mM NaCl and 25 mM MOPS (adjusted to pH 7 with NaOH). Solutions of DNA were prepared by diluting the DNA stock solutions (see UV‐visible titrations) as required. Complex solutions were prepared by dissolving 5 mg of the complex in 5 mL of buffer, then filtered through a 0.22 µm PES filter to ensure uniform solutions for ITC titration. Concentrations of solutions of complexes and of DNA were determined using UV‐visible spectroscopy. Calorimetric titrations were carried out at 25 °C on a MicroCal PEAQ‐ITC microcalorimeter (Malvern Instruments Ltd., Worcestershire, UK). The instrument was operated by applying a reference power of 10 μcal/s in high‐feedback mode, stirring the sample cell contents at 750 rpm, with a pre‐injection initial delay of 60 s. Solutions of complexes were loaded into the calorimeter injection syringe and DNA solutions were loaded into the sample cell. All experiments involved an initial injection of 0.4 µL in 0.8 s followed by 18 further injections of 2.0 µL in 4.0 s per injection into the calorimeter sample cell. Injections were spaced by at least 90 s to allow full recovery of the baseline. Raw data were treated using MicroCal PEAQ‐ITC Analysis Software (1.41) to generate both integrated heat effects per injection (ΔQ) and molar heat effects per injection (ΔH). Further data analysis was carried out using I2CITC.^[ [45], [47] ^]

Row | SMILES | Δε (fish sperm DNA (FSDNA)) | ΔH A1 (FSDNA) [kcal/mol] | ‐TΔS A1 (FSDNA) [kcal/mol] | ΔH B1 (FSDNA) [kcal/mol] | ‐TΔS B1 (FSDNA) [kcal/mol]
1 | Cc1c[c-]c(-c2nc3ccccc3s2)cc1.Cc1c[c-]c(-c2nc3ccccc3s2)cc1.NCCN.[Cl-].[Ir+3] [[Ir(L2)2(en)]Cl] | −3.2 ± 0.1 10^3 M^−1 cm^−1 | 0.14 | -11.2 | -2.99 | -4.66
2 | NCCN.[Cl-].[Ir+3].[c-]1ccccc1-c1nc2ccccc2s1.[c-]1ccccc1-c1nc2ccccc2s1 [[Ir(L1)2(en)]Cl] | −2.7 ± 0.2 10^3 M^−1 cm^−1 | -0.789 | -10.6 | -3.73 | -3.3
3 | FC(F)(F)Oc1c[c-]c(-c2nc3ccccc3s2)cc1.FC(F)(F)Oc1c[c-]c(-c2nc3ccccc3s2)cc1.NCCN.[Cl-].[Ir+3] [[Ir(L5)2(en)]Cl] | −6.6 ± 0.2 10^3 M^−1 cm^−1 |  |  |  | 
4 | COc1c[c-]c(-c2nc3ccccc3s2)cc1.COc1c[c-]c(-c2nc3ccccc3s2)cc1.NCCN.[Cl-].[Ir+3] [[Ir(L3)2(en)]Cl] | −5.9 ± 0.2 10^3 M^−1 cm^−1 | 0 | -9.94 |  | -3.39
5 | Clc1c[c-]c(-c2nc3ccccc3s2)cc1.Clc1c[c-]c(-c2nc3ccccc3s2)cc1.NCCN.[Cl-].[Ir+3] [[Ir(L4)2(en)]Cl] | −3.6 ± 0.2 10^3 M^−1 cm^−1 |  |  |  | 

Reference: paper PMC12117180, “DNA‐Binding Properties of Non‐Intercalating Water‐Soluble Organometallic Ir(III) Luminophores” (Chemistry (Weinheim an Der Bergstrasse, Germany), 2025)
